In paper PMC9388692, “Nuclear import of PTPN18 inhibits breast cancer metastasis mediated by MVP and importin β2” (Cell Death & Disease, 2022):
Results are given in words; binding and its absence hold for the method and conditions named. Binding seen in cells or lysates may run through a third protein. For part of these data: Binding can be weak; no strength is given.

Amino acid sequences for entries named in this document (tags omitted).
UniProt Q14764: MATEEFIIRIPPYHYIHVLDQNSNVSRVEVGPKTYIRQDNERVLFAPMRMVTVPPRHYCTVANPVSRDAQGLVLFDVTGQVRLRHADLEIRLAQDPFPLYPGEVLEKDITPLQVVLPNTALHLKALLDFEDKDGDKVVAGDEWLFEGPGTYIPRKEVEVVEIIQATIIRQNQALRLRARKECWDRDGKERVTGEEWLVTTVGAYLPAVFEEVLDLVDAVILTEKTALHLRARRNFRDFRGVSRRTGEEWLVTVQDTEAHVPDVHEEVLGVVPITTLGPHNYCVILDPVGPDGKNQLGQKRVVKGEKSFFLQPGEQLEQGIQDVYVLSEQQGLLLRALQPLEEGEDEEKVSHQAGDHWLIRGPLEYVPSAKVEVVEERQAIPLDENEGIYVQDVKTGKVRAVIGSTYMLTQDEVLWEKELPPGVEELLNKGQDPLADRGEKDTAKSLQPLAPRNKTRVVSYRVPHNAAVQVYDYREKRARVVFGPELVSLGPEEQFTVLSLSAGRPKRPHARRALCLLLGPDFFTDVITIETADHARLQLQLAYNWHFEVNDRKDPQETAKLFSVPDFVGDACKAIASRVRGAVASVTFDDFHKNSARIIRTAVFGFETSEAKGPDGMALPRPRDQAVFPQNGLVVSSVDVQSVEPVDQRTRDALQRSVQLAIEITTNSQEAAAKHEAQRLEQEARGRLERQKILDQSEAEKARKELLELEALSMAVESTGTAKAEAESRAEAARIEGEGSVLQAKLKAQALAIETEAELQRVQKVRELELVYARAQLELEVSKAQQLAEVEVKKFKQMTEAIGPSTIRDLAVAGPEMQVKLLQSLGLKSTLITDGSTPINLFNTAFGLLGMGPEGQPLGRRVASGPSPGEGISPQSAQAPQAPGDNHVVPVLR

Experiments:
Flag-MVP = Flag-MVP (UniProt Q14764); test: co-IP; ectopic tagged proteins in 293T cells, lysed 48 h after transfection in RIPA buffer, primary antibody overnight at 4 °C, protein A/G agarose, western blot
importin α3 = test: co-IP; PTPN18 and members of the importin family; cells and constructs not stated
importin α6 = test: as above
importin α4 = test: as above
importin α1 = test: as above
importin α7 = test: as above
importin α5 = test: as above

PTPN18-GFP ΔpNLS3 (from UniProt Q99952)
binding (Flag-MVP): binds

PTPN18-GFP ΔpNLS2A (from UniProt Q99952)
binding (Flag-MVP): no binding

PTPN18-GFP ΔpNLS2B (from UniProt Q99952)
binding (Flag-MVP): no binding

B1: GST-tagged PTPN18 (natural protein, UniProt Q99952 1-460, looked up)
chain: MSRSLDSARSFLERLEARGGREGAVLAGEFSDIQACSAAWKADGVCSTVAGSRPENVRKNRYKDVLPYDQTRVILSLLQEEGHSDYINGNFIRGVDGSLAYIATQGPLPHTLLDFWRLVWEFGVKVILMACREIENGRKRCERYWAQEQEPLQTGLFCITLIKEKWLNEDIMLRTLKVTFQKESRSVYQLQYMSWPDRGVPSSPDHMLAMVEEARRLQGSGPEPLCVHCSAGCGRTGVLCTVDYVRQLLLTQMIPPDFSLFDVVLKMRKQRPAAVQTEEQYRFLYHTVAQMFCSTLQNASPHYQNIKENCAPLYDDALFLRTPQALLAIPRPPGGVLRSISVPGSPGHAMADTYAVVQKRGAPAGAGSGTQTGTGTGTGARSAEEAPLYSKVTPRAQRPGAHAEDARGTLPGRVPADQSPAGSGAYEDVAGGAQTGGLGFNLRIGRPKGPRDPPAEWTRV
notes: PTPN18 wild type, GST-tagged, for GST pull-down; also called PTPN18 WT; source: purified proteins
binding (importin α3): no binding
binding (importin α6): no binding
binding (importin α4): no binding
binding (importin α1): no binding
binding (importin α7): no binding
binding (importin α5): no binding
